Test results reported in patent US20100011462A1, “FLAVIN MONOOXYGENASES AND TRANSCRIPTION FACTORS INVOLVED IN GLUCOSINOLATE BIOSYNTHESIS” (University of Copenhagen, priority 2006, published 2010).
Some entries share one result that the patent states for a list of compounds.

B1: At1g62560: flavin-containing monooxygenase (FMO) from A. thaliana, SEQ ID NO 2; also its overexpression in planta (protein, listed as Arabidopsis thaliana)
chain: MAPAQNQITSKHVAVIGAGPAGLITSRELRREGHSVVVFEREKQVGGLWVYTPKSDSDPLSLDPTRSKVHSSIYESLRTNVPRESMGVRDFPFLPRFDDESRDARRYPNHREVLAYIQDFAREFKIEEMIRFETEVVRVEPVDNGNWRVQSKNSGGFLEDEIYDAVVVCNGHYTEPNIAHIPGIKSWPGKQIHSHNYRVPDPFENEVVVVIGNFASGADISRDIAKVAKEVHIASRAREPHTYEKISVPQNNLWMHSEIDTTHEDGSIVFKNGKVIFADSIVYCTGYKYNFPFLETNGYLRIDEKRVEPLYKHVFPPALAPGLAFVGLPAMGIVFVMFEIQSKWVAAVLSGRVTLPSTDKMMEDINAWYASLDALGIPKRHTHTIGRIQSEYLNWVAKESGCELVERWRGQEVDGGYLRLVAHPETYRDEWDDDELIEEAYNDFSRKKLISVDPSYYLENGR
B2: At1g65860: flavin-containing monooxygenase (FMO) from A. thaliana, SEQ ID NO 4; also its overexpression in planta (protein, listed as Arabidopsis thaliana)
chain: MAPTQNTICSKHVAVIGAGAAGLVTARELRREGHTVVVFDREKQVGGLWNYSSKADSDPLSLDTTRTIVHTSIYESLRTNLPRECMGFTDFPFVPRIHDISRDSRRYPSHREVLAYLQDFAREFKIEEMVRFETEVVCVEPVNGKWSVRSKNSVGFAAHEIFDAVVVCSGHFTEPNVAHIPGIKSWPGKQIHSHNYRVPGPFNNEVVVVIGNYASGADISRDIAKVAKEVHIASRASESDTYQKLPVPQNNLWVHSEIDFAHQDGSILFKNGKVVYADTIVHCTGYKYYFPFLETNGYININENRVEPLYKHVFLPALAPSLSFIGLPGMAIQFVMFEIQSKWVAAVLSGRVILPSQDKMMEDIIEWYATLDVLGIPKRHTHKLGKISCEYLNWIAEECHCSPVENWRIQEVERGFQRMVSHPEIYRDEWDDDDLMEEAYKDFARKKLISSHPSYFLES

System: Arabidopsis thaliana Col-0
Assay: 4MTB and 4MSB levels in At1g65860 and At1g62560 overexpression lines
Assay type: in vivo
Details: overexpressors
Procedure: FIG. 5—4-methylthiobutyl glucosinolate levels in rosette leaves from 24 day old wild type columbia and transgenic At1g65860 and At1g62560 overexpression lines. Quantities are given in nmol/mg fresh weight ±one standard deviation and are the mean of extractions from four individual plants. Two independent lines were analysed for each construct. The lines H and AT for 35S overexpression of At1g65860 and line 9 and 11 for 35S overexpression of At1g62560.
FIG. 12—4-6 fold increase in 4MSB levels in seeds in overexpressors of At1g62560 and At1g65860.
In another separate experiment a mix of heterozygous and homozygous 35S:At1g62560 and 35S:At1g65860 as well as Arabidopsis thaliana, ecotype Columbia, were used.
Three-four leaves (20-80 mg) were harvested from each plant and the material freeze-dried O/N. After adding one ball bearing to each tube, the tissue was homogenized by shaking at a frequency of 30 s^−1 for one min on a Retsch Mixer Mill 303 (Retsch, Haan, Germany). 250 μl of 85% methanol was added to each tube and the entire box vortexed for 30 s. For glucosinolate extraction from seeds (10-20 mg) 250 μl of 85% methanol was added before homogenization. The samples were mixed for two minutes by vortexing. […]

Molecule	increase in 4MSB levels in seeds
B1	4-6 fold
B2	4-6 fold
